According to paper PMC5610242, “Stapled peptide inhibitors of RAB25 target context-specific phenotypes in cancer” (Nature Communications, 2017):
These are yes or no findings as the source states them, for the method shown. In cells and extracts the contact can be indirect. Binding calls can cover weak binding; strength is not graded here. Sequences can lack the tags named with a protein.

Biological target: T1, HA-RAB25 (UniProt P57735)
T1 sequence: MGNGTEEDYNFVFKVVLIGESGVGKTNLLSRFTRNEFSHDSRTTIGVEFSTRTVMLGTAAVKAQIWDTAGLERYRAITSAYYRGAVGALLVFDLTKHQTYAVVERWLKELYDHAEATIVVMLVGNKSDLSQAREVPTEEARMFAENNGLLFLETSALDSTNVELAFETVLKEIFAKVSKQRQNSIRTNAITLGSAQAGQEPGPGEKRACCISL
Experiment: co-IP; lysate of HEY HA-RAB25 cells transfected with pcDNA3-His B-FIP1; anti-HA agarose; blot for FIP1; lysate pretreated with DMSO or RFP peptides 1 h at 4 °C

Substance: H6-FIP1
- binding: binds
